Compound in assay [1]: ClCC(=O)N[C@@H]1CCCc2ccccc12
The experiment in a line: log2 mean competition ratio of IA-DTB cysteine labelling (DMSO/compound) (log2 ratio); higher = stronger cysteine engagement by compound. Particulars: treatment time: 4 h, cell line lysate: HEK293T. The procedure:
(§1)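 IA-DTB competitive cysteine chemoproteomics in HEK293T RIPA lysate. Lysates were treated with compound 29 or 30 at 50 or 200 µM for 4 h, then IA-DTB (500 µM, 1 h), trypsin-digested, NeutrAvidin-enriched and analysed by diaPASEF. Competition ratio = intensity DMSO / intensity compound (n=4 treated, n=64 DMSO); binding: mean log2 CR ≥ 1 and p ≤ 0.05 plus QC filters. Target is the cysteine site.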

Sequences of proteins named here, by UniProt entry; tags and fusion partners are left off. A change or cut given only in a name is not applied to a line headed by its entry. Residues count along the entry.
UniProt O75127: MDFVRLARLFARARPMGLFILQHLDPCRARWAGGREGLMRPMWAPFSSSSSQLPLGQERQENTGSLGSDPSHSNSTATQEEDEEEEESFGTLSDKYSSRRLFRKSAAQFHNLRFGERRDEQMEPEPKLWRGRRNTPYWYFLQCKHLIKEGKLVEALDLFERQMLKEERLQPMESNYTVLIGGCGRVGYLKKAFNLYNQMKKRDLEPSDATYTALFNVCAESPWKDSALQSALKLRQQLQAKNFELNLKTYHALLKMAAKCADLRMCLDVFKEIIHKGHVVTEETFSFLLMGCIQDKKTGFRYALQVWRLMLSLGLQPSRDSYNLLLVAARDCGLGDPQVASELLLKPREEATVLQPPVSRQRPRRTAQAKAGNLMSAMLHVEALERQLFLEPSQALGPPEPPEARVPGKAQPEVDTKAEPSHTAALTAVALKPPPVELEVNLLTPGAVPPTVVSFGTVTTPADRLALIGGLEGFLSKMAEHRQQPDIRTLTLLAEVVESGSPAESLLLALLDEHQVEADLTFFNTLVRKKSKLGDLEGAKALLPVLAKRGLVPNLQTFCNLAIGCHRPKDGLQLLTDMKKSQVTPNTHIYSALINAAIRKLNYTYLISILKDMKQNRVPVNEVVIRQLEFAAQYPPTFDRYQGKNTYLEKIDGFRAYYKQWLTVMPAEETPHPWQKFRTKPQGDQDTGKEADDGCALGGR
UniProt Q13308: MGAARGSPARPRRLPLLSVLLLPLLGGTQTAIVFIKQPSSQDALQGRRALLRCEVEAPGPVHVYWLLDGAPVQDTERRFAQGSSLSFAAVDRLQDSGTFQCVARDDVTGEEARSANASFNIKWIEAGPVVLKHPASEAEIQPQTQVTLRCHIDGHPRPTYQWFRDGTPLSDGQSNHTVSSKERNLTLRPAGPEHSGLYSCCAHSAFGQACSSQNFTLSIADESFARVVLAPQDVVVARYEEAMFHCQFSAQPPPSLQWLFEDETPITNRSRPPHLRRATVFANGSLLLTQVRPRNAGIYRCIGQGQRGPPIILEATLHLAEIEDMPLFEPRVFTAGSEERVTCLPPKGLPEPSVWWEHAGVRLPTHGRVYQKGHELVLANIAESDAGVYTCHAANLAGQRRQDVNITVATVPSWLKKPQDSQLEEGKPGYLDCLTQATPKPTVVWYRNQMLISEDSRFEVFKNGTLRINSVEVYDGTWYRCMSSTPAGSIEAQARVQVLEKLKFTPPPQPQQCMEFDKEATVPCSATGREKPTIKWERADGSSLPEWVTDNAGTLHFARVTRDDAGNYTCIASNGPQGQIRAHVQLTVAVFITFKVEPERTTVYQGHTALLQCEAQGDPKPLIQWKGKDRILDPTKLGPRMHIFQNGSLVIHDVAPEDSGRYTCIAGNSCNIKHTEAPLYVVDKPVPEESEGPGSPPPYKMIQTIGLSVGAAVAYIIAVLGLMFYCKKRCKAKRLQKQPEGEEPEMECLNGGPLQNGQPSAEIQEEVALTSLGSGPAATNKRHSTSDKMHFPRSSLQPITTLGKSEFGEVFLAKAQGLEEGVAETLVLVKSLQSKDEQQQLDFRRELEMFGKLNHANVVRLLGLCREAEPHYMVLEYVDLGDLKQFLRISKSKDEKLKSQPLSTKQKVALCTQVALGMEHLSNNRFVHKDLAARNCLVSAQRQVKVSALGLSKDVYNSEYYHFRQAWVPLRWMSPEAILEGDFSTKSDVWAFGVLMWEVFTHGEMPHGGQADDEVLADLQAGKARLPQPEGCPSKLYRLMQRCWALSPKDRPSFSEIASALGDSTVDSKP
UniProt Q969U7: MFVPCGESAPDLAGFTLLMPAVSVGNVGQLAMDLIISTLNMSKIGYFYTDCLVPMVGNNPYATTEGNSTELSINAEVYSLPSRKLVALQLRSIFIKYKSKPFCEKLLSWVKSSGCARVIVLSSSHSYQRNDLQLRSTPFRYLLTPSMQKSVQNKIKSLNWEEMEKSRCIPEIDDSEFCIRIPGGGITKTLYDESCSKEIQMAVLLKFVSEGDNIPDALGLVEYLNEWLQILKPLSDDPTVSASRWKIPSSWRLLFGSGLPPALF
UniProt Q9Y620: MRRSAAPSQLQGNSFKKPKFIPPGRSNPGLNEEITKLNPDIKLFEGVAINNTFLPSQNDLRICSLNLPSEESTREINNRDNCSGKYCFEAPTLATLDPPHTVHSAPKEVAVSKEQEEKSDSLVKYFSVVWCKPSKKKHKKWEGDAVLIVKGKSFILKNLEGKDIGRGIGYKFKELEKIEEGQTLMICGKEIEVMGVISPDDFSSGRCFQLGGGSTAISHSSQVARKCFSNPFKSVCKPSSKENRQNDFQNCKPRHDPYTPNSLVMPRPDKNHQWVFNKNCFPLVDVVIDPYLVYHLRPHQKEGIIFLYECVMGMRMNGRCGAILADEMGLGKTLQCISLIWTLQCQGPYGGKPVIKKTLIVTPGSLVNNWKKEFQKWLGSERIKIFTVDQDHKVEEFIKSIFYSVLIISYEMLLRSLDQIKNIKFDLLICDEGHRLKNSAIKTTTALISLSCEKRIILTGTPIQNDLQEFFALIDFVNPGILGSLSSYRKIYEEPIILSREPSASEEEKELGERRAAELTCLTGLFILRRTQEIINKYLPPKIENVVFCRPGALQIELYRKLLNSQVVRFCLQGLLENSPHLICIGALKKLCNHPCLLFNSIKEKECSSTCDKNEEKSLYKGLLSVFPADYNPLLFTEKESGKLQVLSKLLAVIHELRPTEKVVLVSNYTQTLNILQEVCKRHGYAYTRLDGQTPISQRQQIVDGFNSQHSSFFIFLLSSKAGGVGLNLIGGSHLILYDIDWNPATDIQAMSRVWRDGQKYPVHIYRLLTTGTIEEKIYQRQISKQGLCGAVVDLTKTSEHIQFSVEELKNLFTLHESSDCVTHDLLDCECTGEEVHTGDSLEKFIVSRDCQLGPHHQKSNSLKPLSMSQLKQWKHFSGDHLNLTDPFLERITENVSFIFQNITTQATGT
UniProt P28066, 67-86: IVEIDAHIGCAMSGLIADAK
UniProt Q13200, 457-478: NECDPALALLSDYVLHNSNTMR
UniProt Q9Y3P9: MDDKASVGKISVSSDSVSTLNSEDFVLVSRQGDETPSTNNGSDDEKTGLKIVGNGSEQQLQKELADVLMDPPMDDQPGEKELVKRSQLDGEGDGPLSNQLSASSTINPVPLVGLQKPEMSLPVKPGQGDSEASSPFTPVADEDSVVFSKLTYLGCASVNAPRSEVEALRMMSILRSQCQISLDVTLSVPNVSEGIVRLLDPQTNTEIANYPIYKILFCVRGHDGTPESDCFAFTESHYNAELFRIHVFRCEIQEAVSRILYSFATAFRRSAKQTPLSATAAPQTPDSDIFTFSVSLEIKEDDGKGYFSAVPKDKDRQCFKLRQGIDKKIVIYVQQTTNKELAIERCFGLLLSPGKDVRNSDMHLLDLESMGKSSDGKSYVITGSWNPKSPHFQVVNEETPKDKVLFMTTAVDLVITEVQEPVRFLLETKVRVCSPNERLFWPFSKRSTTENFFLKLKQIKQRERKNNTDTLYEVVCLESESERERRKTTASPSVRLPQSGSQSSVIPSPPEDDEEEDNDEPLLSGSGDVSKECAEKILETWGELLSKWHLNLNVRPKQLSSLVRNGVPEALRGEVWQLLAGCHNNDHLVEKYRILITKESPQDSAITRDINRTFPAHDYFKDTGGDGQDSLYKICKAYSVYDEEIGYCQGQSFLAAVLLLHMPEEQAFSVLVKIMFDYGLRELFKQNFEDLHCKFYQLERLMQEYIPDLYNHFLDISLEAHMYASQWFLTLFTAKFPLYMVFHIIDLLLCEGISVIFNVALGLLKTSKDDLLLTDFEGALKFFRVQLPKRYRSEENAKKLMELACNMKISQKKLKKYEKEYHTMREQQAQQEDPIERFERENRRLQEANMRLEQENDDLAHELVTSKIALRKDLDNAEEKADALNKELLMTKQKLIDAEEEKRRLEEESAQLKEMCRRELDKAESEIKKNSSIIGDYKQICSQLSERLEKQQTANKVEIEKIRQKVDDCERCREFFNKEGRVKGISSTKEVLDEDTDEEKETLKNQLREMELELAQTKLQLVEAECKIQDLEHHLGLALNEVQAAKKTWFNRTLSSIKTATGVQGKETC
UniProt P51151: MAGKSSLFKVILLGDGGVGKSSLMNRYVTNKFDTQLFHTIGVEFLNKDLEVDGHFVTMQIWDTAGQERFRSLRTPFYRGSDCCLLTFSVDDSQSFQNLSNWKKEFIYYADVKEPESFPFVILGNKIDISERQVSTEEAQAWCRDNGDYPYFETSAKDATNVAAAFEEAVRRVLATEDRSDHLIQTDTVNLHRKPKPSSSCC
UniProt Q5THK1: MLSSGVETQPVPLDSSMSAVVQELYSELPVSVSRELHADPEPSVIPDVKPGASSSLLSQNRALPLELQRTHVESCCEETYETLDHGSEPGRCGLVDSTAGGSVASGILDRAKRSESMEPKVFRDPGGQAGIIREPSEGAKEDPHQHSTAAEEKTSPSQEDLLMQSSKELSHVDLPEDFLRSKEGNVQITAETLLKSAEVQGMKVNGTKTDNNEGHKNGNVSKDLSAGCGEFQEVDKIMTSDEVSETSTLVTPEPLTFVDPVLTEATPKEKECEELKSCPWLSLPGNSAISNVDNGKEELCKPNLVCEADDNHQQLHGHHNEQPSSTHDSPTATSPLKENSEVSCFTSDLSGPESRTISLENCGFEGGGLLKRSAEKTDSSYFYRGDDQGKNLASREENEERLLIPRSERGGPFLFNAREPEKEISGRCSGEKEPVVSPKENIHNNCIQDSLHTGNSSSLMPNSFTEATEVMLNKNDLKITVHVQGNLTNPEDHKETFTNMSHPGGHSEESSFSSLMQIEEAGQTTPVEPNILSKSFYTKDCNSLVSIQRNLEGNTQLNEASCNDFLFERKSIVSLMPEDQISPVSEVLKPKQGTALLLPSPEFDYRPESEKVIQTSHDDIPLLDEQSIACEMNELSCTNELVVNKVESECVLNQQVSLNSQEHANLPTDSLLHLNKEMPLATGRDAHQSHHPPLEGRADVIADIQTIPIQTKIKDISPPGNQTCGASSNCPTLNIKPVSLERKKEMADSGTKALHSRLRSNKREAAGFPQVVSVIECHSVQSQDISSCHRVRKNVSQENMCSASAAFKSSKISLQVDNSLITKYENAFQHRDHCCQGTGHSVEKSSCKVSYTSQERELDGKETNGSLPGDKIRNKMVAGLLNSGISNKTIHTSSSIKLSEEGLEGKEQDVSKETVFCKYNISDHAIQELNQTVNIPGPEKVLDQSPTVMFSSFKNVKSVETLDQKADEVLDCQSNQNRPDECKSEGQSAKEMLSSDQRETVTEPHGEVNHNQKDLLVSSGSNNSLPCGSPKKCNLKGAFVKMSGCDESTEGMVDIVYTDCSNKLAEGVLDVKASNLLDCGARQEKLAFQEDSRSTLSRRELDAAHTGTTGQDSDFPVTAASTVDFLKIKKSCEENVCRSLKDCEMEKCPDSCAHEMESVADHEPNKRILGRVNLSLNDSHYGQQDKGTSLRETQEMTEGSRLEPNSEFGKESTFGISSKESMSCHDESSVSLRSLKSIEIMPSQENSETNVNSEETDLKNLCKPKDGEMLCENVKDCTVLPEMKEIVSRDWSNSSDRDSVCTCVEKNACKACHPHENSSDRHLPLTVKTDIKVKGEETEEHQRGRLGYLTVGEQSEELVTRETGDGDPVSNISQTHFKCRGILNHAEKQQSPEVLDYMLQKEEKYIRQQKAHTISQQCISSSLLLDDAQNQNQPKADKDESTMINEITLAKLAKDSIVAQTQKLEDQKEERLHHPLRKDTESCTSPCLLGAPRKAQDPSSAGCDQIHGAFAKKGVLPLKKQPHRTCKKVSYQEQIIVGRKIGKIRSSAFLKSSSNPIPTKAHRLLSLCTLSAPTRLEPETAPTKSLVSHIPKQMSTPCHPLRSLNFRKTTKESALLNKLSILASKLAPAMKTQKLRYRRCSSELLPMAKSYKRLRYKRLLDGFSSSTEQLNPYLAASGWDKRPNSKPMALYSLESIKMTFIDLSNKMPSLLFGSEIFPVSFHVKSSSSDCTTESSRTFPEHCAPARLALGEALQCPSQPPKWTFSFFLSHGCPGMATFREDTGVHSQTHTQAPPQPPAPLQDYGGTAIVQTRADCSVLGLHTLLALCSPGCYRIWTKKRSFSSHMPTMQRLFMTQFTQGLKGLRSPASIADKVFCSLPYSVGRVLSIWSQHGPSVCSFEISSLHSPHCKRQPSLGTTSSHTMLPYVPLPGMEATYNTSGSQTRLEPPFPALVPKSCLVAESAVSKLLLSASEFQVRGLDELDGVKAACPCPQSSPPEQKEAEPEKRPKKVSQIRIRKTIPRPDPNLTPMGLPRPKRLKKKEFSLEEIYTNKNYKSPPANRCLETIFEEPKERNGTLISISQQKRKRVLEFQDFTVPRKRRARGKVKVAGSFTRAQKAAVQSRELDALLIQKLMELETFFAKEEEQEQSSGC

Compound in assay [2]: ClCC(=O)N[C@H]1CCCc2ccccc12
Described as above. Particulars: treatment time: 4 h, cell line lysate: HEK293T. The procedure:
as §1

This is one part of the list. The data scatter; read single values as rough.

On to PSME3IP1 C44, for which the “log2 mean competition ratio” value was -0.033 in assay [1] (50 µM), -0.14 in assay [1] (200 µM), -0.0989 in assay [2] (50 µM) and -0.0189 in assay [2] (200 µM).

As for PTCD1 C183 (UniProt O75127), the “log2 mean competition ratio” value in assay [1] (50 µM) amounted to 0.927; in assay [1] (200 µM) it was 0.684; in assay [2] (50 µM) it was 0.537; in assay [2] (200 µM), 0.773.

Take PRRC2B C525: the “log2 mean competition ratio” value in assay [1] (50 µM) was 0.243; in assay [1] (200 µM), -0.0718; in assay [2] (50 µM), 0.173; in assay [2] (200 µM), -0.122.

Take PTK7 C524 (UniProt Q13308): the “log2 mean competition ratio” value in assay [1] (50 µM) stood at 0.0761; in assay [1] (200 µM) it was 0.318; in assay [2] (50 µM) it was 0.186; in assay [2] (200 µM) it was 0.233.

As to PSMG2 C195 (UniProt Q969U7), the “log2 mean competition ratio” value in assay [1] (50 µM) is -0.286; in assay [1] (200 µM) it was -0.165; in assay [2] (50 µM), -0.321; in assay [2] (200 µM), -0.171.

PSMC6 C193 (UniProt P62333): the “log2 mean competition ratio” value in assay [1] (50 µM) was 0.488; in assay [1] (200 µM) it was 0.541; in assay [2] (50 µM) it was 0.216; in assay [2] (200 µM) it was 0.499.

Turning to RAD54B C851 (UniProt Q9Y620), the “log2 mean competition ratio” value in assay [1] (50 µM) is -0.0224; in assay [1] (200 µM), -0.242; in assay [2] (50 µM), -0.184; in assay [2] (200 µM) it was -0.00121.

Take PSMA5 C76 (UniProt P28066): the “log2 mean competition ratio” value is -0.045 in assay [1] (50 µM), 0.465 in assay [1] (200 µM), 0.0827 in assay [2] (50 µM) and 0.186 in assay [2] (200 µM).

For the target PTPN18 C46 (UniProt Q99952), the “log2 mean competition ratio” value was -0.0426 in assay [1] (50 µM), -0.0979 in assay [1] (200 µM), -0.0972 in assay [2] (50 µM) and -0.213 in assay [2] (200 µM).

On to PYCR1 C262, for which the “log2 mean competition ratio” value in assay [1] (50 µM) worked out at 0.281; in assay [1] (200 µM), 0.102; in assay [2] (50 µM), 0.0332; in assay [2] (200 µM), 0.114.

On to PTPN23 C65 (UniProt Q9H3S7), for which the “log2 mean competition ratio” value in assay [1] (50 µM) turned out to be 0.0329; in assay [1] (200 µM), 0.219; in assay [2] (50 µM), 0.162; in assay [2] (200 µM), 0.425.

With PSME3IP1 C187, the “log2 mean competition ratio” value in assay [1] (50 µM) was -0.209; in assay [1] (200 µM), 0.531; in assay [2] (50 µM), -0.206; in assay [2] (200 µM), 0.375.

Regarding PSMC5 C112, the “log2 mean competition ratio” value in assay [1] (50 µM) is -0.16; in assay [1] (200 µM), 0.0911; in assay [2] (50 µM), 0.0314; in assay [2] (200 µM), 0.166.

Consider PSMD2 C459 (UniProt Q13200), for which the “log2 mean competition ratio” value in assay [1] (50 µM) is -0.0176; in assay [1] (200 µM), -0.022; in assay [2] (50 µM), 0.18; in assay [2] (200 µM), -0.124.

With RABGAP1 C941 (UniProt Q9Y3P9), the “log2 mean competition ratio” value in assay [1] (50 µM) was -0.479; in assay [1] (200 µM) it was -0.268; in assay [2] (50 µM) it was -0.138; in assay [2] (200 µM), -0.279.

Turning to PTPN12 C164 (UniProt Q05209), the “log2 mean competition ratio” value in assay [1] (50 µM) is -0.0213; in assay [1] (200 µM), 0.0523; in assay [2] (50 µM), -0.263; in assay [2] (200 µM) it was -0.0592.

As for PTPN12 C470 (UniProt Q05209), the “log2 mean competition ratio” value in assay [1] (50 µM) was -0.104; in assay [1] (200 µM), -0.0838; in assay [2] (50 µM), 0.237; in assay [2] (200 µM), -0.0128.

In the case of RABGAP1 C805 (UniProt Q9Y3P9), the “log2 mean competition ratio” value was 0.253 in assay [1] (50 µM), -0.0581 in assay [1] (200 µM), 0.263 in assay [2] (50 µM) and -0.044 in assay [2] (200 µM).

As for RAB9A C142 (UniProt P51151), the “log2 mean competition ratio” value is -0.278 in assay [1] (50 µM), 0.162 in assay [1] (200 µM), -0.163 in assay [2] (50 µM) and 0.224 in assay [2] (200 µM).

PRR14L C1956 (UniProt Q5THK1): the “log2 mean competition ratio” value in assay [1] (50 µM) was -0.145; in assay [1] (200 µM) it was -0.0487; in assay [2] (50 µM), 0.0915; in assay [2] (200 µM) it was -0.0178.

With PRRC2C C587 (UniProt Q9Y520), the “log2 mean competition ratio” value in assay [1] (50 µM) was -0.0842; in assay [1] (200 µM), -0.112; in assay [2] (50 µM) it was -0.19; in assay [2] (200 µM), 0.00737.

Turning to RAD50 C221, the “log2 mean competition ratio” value was -0.00832 in assay [1] (50 µM), -0.0742 in assay [1] (200 µM), -0.723 in assay [2] (50 µM) and -0.296 in assay [2] (200 µM).

RABEPK C96 (UniProt Q7Z6M1): the “log2 mean competition ratio” value in assay [1] (50 µM) was 0.0529; in assay [1] (200 µM), 0.0213; in assay [2] (50 µM), -0.144; in assay [2] (200 µM), -0.256.

Regarding QARS1 C358, A0A0U1RR66, the “log2 mean competition ratio” value in assay [1] (50 µM) was 0.379; in assay [1] (200 µM), -0.174; in assay [2] (50 µM) it was 0.365; in assay [2] (200 µM) it was -0.205.

Source of the values: the supplement of paper PMC11732987, “Enantioselective OTUD7B fragment discovery through chemoproteomics screening and high-throughput optimisation” (Communications Chemistry, 2025).
